These results are taken from PubChem BioAssay AID248 (DTP/NCI, 2004).

SMILES strings stand for the structures. The list is a part of this screen's results and no random one: its compounds were picked by chemical class. Other doses and runs of a compound may be missing. T/C: endpoint of the treated group in % of that of the vehicle group. For survival time, this PubChem deposit counts one and a half times the control or more as active, and values a quarter to a half above the control carry no call in these data; other NCI protocols may use other cut-offs. Some T/C values are marked as having no survivor count here; that says nothing about deaths at the dose. Schedules are NCI's codes, read here as Q, the interval in days (D) or hours (H), X, the number of doses. Some entries were tested several times; the results are listed from low to high. Some schedule codes hold Z or #, which are not explained here.

The subject of the assay is L1210 leukemia ip in BDF1 mice, survival T/C. Briefly: NCI In Vivo Anticancer Drug Screen. Data for tumor model L1210 Leukemia (intraperitoneal) in B6D2F1 (BDF1) mice. Particulars: T/C endpoint: mean survival time, higher T/C = longer survival.

In the case of `COC(=O)CCc1ccc(CN(CCCl)CCCl)cc1`, the T/C reads like this: (dose: 0.27 mg/kg/injection, schedule: Q01DX Z (ip), vehicle: methylcellulose (MC)) 114 % of control [survivor count not shown]; (dose: 0.4 mg/kg/injection, schedule: Q01DX Z (ip), vehicle: carboxymethylcellulose (CMC)) 100 % of control [survivor count not shown]; (dose: 0.4 mg/kg/injection, schedule: Q01DX Z (ip), vehicle: methylcellulose (MC)) 125 % of control [survivor count not shown]; (dose: 0.4 mg/kg/injection, schedule: Q01DX Z (ip), vehicle: saline) 99 % of control [survivor count not shown]; (dose: 0.6 mg/kg/injection, schedule: Q01DX Z (ip), vehicle: methylcellulose (MC)) 128 [survivor count not shown] and 130 % of control [survivor count not shown]; (dose: 0.75 mg/kg/injection, schedule: Q01DX009 (ip), vehicle: saline) 101 % of control [survivor count not shown]. For the same compound, the T/C runs as follows: (dose: 1.0 mg/kg/injection, schedule: Q01DX Z (ip), vehicle: carboxymethylcellulose (CMC)) 103 % of control [survivor count not shown]; (dose: 1.0 mg/kg/injection, schedule: Q01DX Z (ip), vehicle: methylcellulose (MC)) 135 [survivor count not shown] and 144 % of control [survivor count not shown]; (dose: 1.0 mg/kg/injection, schedule: Q01DX Z (ip), vehicle: saline) 100 [survivor count not shown], 109 [survivor count not shown], 113 [survivor count not shown], 129 % of control [survivor count not shown]; (dose: 1.5 mg/kg/injection, schedule: Q01DX009 (ip), vehicle: saline) 101 % of control [survivor count not shown]; (dose: 1.56 mg/kg/injection, schedule: Q01DX009 (ip), vehicle: saline) 123 % of control [survivor count not shown]; (dose: 1.56 mg/kg/injection, schedule: Q04DX003 (ip), vehicle: saline) 110 % of control [survivor count not shown]. The T/C (dose: 2.0 mg/kg/injection, schedule: Q01DX Z (ip), vehicle: carboxymethylcellulose (CMC)) was 113 % of control [survivor count not shown]; the T/C (dose: 2.0 mg/kg/injection, schedule: Q01DX Z (ip), vehicle: methylcellulose (MC)) was 139 [survivor count not shown] and 194 % of control [survivor count not shown]; the T/C (dose: 2.0 mg/kg/injection, schedule: Q01DX Z (ip), vehicle: saline) is 107 [survivor count not shown], 121 [survivor count not shown], 123 % of control [survivor count not shown]; the T/C (dose: 3.0 mg/kg/injection, schedule: Q01DX009 (ip), vehicle: saline) is 101 % of control [survivor count not shown]; the T/C (dose: 3.0 mg/kg/injection, schedule: Q01DX Z (ip), vehicle: carboxymethylcellulose (CMC)) is 113 % of control [survivor count not shown]; the T/C (dose: 3.0 mg/kg/injection, schedule: Q01DX Z (ip), vehicle: methylcellulose (MC)) is 145 [survivor count not shown] and 155 % of control [survivor count not shown]. Moreover, the T/C by setting is: (dose: 3.0 mg/kg/injection, schedule: Q01DX Z (ip), vehicle: saline) 102 [survivor count not shown], 113 [survivor count not shown], 126 % of control [survivor count not shown]; (dose: 3.12 mg/kg/injection, schedule: Q01DX009 (ip), vehicle: saline) 118 % of control [survivor count not shown]; (dose: 3.12 mg/kg/injection, schedule: Q04DX003 (ip), vehicle: saline) 114 % of control [survivor count not shown]; (dose: 4.0 mg/kg/injection, schedule: Q01DX Z (ip), vehicle: carboxymethylcellulose (CMC)) 119 [survivor count not shown] and 124 % of control [survivor count not shown]; (dose: 4.0 mg/kg/injection, schedule: Q01DX Z (ip), vehicle: saline) 140 % of control [survivor count not shown]; (dose: 4.5 mg/kg/injection, schedule: Q01DX Z (ip), vehicle: saline) 123 % of control [survivor count not shown]. In addition, the T/C reads like this: (dose: 6.0 mg/kg/injection, schedule: Q01DX Z (ip), vehicle: carboxymethylcellulose (CMC)) 121 % of control [survivor count not shown]; (dose: 6.2 mg/kg/injection, schedule: Q01DX001 (ip), vehicle: carboxymethylcellulose (CMC)) 111 % of control [survivor count not shown]; (dose: 6.25 mg/kg/injection, schedule: Q04DX003 (ip), vehicle: saline) 123 % of control [survivor count not shown]; (dose: 9.0 mg/kg/injection, schedule: Q01DX Z (ip), vehicle: carboxymethylcellulose (CMC)) 124 % of control [survivor count not shown].

As for `CCCCC1(N(CCCl)CCCl)C(=O)NC(=O)NC1=O`, the T/C by setting is: (dose: 50.0 mg/kg/injection, schedule: Q04DX002 (ip), vehicle: saline) 117 % of control [survivor count not shown]; (dose: 100.0 mg/kg/injection, schedule: Q04DX002 (ip), vehicle: saline) 104 [survivor count not shown] and 132 % of control [survivor count not shown]; (dose: 200.0 mg/kg/injection, schedule: Q04DX002 (ip), vehicle: saline) 111 [survivor count not shown] and 127 % of control [survivor count not shown]; (dose: 400.0 mg/kg/injection, schedule: Q04DX002 (ip), vehicle: saline) 104 [survivor count not shown] and 139 % of control [survivor count not shown].

For `CCCCOP(=O)(Cl)N(CC)CC` (centres undefined), the T/C was 105 % of control [survivor count not shown] (dose: 50.0 mg/kg/injection, schedule: Q01DX009 (ip), vehicle: DMSO) and 94 % of control [survivor count not shown] (dose: 100.0 mg/kg/injection, schedule: Q01DX009 (ip), vehicle: DMSO).
